This is an account of results in the supplement of paper PMC12819154, “High-throughput peptide-centric local stability assay extends protein–ligand identification to membrane proteins, tissues and bacteria” (Nature Structural & Molecular Biology, 2025).

Chains of the proteins cited; added tags and fusions are not shown. Lines headed by an entry give the natural chain unless they say otherwise; changes in a name come on top.
UniProt Q9EP71: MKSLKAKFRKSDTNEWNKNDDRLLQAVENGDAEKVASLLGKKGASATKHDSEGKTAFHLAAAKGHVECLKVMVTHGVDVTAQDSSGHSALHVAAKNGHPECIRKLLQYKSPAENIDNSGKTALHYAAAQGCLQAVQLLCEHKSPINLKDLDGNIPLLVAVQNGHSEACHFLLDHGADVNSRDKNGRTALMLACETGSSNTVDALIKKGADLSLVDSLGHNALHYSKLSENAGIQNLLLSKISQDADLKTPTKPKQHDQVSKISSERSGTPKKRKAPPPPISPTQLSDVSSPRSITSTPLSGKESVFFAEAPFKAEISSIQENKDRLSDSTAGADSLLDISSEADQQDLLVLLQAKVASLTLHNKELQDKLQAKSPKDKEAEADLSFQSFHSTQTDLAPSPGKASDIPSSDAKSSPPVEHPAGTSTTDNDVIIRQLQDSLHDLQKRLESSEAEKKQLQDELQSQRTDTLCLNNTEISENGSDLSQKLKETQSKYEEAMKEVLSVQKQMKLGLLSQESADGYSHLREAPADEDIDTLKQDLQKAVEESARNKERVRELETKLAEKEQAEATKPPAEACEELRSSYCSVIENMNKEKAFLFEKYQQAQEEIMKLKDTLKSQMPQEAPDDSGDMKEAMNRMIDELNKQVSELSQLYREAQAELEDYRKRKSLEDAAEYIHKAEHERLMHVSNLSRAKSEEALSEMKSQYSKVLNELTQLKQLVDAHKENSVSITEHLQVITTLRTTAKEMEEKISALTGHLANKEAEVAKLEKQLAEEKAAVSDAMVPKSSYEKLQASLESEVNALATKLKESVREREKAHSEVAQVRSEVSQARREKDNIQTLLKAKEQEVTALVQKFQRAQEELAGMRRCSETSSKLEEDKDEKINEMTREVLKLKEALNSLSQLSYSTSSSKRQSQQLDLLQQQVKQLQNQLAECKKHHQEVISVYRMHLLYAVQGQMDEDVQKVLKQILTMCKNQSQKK
UniProt Q9DCK3: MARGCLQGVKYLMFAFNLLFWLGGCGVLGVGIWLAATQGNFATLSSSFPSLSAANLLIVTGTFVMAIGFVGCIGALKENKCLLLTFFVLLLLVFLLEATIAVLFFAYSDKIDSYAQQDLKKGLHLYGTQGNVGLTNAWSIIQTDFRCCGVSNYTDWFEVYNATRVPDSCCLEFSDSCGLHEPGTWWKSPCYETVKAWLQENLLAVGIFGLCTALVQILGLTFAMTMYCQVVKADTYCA
UniProt Q9EPL9: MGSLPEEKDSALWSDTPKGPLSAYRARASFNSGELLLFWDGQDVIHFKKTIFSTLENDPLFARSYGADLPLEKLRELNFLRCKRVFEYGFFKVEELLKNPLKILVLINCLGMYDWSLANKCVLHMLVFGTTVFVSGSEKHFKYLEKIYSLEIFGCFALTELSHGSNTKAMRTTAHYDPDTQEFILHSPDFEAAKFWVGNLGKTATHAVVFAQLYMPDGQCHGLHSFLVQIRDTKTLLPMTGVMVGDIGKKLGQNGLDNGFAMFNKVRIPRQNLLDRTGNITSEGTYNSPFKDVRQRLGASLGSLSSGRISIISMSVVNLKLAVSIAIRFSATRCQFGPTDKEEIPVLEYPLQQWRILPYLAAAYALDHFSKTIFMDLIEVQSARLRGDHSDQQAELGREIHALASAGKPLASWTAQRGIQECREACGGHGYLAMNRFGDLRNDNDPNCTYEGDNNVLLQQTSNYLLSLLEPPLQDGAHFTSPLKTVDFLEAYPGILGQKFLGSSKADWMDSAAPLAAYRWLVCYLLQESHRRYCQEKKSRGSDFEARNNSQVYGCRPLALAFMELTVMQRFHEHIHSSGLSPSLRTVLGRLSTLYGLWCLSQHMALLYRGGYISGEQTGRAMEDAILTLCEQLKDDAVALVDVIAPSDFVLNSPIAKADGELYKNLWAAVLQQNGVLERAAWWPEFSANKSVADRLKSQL
UniProt Q9JIM1: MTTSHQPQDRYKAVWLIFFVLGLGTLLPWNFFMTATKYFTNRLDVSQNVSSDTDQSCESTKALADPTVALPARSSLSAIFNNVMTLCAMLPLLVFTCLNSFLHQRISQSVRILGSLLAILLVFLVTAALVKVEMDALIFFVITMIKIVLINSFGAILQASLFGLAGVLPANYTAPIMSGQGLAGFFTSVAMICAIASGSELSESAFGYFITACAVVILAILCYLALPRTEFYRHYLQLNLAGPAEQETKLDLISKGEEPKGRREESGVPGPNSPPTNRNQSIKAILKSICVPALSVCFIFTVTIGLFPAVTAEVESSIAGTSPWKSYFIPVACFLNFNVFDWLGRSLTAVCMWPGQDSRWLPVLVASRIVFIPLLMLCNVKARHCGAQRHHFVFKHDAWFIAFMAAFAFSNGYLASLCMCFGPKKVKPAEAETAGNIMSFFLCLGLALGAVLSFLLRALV
UniProt Q9QY36: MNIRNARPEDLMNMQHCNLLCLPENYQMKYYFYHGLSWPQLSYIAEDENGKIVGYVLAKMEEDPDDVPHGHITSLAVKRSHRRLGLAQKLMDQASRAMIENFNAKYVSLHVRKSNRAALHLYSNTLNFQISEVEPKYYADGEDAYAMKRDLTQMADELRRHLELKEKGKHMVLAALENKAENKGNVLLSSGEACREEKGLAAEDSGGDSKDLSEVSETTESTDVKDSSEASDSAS
UniProt Q9JIS5, whole entry: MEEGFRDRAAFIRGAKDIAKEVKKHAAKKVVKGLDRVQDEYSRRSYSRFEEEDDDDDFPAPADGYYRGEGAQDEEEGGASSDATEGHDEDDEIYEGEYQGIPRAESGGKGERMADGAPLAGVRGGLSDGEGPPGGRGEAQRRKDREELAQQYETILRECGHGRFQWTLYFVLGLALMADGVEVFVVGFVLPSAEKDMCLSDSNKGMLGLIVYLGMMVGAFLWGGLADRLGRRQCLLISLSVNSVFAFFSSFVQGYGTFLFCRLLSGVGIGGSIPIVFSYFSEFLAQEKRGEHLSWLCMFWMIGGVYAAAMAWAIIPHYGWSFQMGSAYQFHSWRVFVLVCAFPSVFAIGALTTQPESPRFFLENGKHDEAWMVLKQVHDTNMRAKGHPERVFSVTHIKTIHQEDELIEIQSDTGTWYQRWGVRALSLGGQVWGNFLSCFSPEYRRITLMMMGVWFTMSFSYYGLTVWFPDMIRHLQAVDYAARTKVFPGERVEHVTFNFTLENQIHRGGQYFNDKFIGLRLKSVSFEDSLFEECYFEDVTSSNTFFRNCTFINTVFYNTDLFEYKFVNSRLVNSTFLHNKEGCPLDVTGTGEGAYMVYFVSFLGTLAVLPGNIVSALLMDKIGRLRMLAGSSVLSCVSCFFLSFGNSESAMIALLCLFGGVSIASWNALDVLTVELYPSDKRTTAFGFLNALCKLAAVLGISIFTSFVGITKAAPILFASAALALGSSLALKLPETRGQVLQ
UniProt Q9JI58: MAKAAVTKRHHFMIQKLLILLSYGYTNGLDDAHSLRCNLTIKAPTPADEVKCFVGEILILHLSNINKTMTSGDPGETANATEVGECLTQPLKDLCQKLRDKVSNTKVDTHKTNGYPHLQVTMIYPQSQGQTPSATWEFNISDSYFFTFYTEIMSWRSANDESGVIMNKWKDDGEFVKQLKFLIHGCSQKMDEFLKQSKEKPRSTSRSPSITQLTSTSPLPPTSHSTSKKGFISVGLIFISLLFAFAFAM
UniProt Q9EPB4: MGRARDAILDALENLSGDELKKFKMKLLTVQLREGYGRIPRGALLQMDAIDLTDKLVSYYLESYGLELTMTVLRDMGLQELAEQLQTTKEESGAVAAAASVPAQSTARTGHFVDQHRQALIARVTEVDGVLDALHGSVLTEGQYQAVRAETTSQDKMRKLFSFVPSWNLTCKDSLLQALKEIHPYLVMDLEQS
UniProt Q9QYH6: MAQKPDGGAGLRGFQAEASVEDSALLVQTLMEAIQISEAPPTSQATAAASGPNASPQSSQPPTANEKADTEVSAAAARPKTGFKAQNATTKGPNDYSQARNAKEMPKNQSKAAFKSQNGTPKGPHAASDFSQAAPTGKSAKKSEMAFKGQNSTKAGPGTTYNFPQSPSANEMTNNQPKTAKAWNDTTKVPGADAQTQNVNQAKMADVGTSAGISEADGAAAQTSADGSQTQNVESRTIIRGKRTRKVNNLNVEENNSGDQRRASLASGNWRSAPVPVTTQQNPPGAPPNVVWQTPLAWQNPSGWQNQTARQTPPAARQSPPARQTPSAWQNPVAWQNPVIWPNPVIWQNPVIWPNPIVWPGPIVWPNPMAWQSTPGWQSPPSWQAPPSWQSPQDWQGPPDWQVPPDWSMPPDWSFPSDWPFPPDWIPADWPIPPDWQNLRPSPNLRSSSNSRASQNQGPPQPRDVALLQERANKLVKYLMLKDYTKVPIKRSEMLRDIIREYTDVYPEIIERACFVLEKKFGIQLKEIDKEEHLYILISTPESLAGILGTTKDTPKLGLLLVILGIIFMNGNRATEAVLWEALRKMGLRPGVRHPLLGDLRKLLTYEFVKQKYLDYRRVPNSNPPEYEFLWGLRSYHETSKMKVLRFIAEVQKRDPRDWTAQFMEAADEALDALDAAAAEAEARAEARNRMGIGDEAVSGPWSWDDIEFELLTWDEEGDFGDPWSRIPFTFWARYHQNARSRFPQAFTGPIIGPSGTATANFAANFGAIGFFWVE
UniProt Q9ERG2: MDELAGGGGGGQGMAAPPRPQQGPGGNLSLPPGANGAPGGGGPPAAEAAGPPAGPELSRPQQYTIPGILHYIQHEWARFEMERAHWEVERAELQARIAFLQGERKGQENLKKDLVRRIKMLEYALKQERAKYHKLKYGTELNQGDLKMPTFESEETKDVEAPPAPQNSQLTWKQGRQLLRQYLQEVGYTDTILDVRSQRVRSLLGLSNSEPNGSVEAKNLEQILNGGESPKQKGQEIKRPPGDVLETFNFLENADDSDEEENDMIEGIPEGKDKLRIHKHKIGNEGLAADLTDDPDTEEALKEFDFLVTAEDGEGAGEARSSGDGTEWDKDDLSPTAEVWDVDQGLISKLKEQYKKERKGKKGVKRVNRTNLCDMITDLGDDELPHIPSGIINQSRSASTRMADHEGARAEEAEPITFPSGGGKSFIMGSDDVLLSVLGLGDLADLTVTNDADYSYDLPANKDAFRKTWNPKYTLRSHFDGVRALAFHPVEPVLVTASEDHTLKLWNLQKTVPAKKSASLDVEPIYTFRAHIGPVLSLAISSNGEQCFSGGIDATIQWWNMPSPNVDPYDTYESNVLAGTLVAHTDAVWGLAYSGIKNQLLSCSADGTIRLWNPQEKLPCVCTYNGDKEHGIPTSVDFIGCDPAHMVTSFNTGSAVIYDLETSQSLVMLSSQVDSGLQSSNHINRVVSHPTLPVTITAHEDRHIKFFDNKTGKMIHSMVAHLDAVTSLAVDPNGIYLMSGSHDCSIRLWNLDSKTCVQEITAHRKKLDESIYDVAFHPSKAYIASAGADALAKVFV
UniProt Q9QXA5: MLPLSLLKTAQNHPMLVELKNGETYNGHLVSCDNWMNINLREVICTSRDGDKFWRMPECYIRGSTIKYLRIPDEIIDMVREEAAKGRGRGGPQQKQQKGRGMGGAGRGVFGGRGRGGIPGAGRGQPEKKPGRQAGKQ
UniProt Q9JHL1: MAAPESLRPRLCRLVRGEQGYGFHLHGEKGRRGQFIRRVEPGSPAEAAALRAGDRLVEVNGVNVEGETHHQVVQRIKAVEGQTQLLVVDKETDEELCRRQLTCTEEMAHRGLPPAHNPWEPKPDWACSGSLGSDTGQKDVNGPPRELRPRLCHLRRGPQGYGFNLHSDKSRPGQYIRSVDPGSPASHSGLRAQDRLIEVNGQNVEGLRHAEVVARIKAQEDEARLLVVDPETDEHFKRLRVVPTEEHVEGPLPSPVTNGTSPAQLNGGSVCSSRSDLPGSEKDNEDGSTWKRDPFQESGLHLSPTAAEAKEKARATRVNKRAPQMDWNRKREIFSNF
UniProt Q9EPT5, whole entry: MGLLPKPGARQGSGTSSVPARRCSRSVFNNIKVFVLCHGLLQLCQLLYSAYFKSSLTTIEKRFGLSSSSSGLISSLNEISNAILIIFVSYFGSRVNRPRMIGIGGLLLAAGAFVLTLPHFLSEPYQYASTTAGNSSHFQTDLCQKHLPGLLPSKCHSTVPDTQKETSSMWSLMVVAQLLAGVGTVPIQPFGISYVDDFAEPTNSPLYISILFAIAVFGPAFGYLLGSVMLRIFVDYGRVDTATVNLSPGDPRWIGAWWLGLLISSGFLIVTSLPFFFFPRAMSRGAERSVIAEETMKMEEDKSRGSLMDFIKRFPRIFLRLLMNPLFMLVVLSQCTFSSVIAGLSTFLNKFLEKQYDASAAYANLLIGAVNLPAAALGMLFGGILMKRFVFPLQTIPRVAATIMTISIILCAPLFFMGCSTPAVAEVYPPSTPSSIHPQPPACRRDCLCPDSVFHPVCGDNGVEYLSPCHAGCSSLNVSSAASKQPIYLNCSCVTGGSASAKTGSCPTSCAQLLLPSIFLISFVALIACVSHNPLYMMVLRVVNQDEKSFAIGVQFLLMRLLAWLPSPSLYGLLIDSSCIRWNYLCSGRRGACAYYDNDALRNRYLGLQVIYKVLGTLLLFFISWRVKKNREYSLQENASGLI

Compound in this assay: CN[C@@H]1C[C@H]2O[C@@](C)([C@@H]1OC)n1c3ccccc3c3c4c(c5c6ccccc6n2c5c31)C(=O)NC4 [staurosporine]
In words: log2 fold change of pooled soluble protein (PISA), ligand vs vehicle (log2 ratio); higher = more thermally stabilized. As to conditions: ligand concentration: 20 uM; assay format: PISA pool 52.9/55.5/58.6 C.

Some of the results follow. Most entries show no effect beyond the scatter of the controls.

With UniProt Q9EP71, the “log2 fold change of pooled soluble protein” value (from here on “log2 fold change”) is -0.139.

As for UniProt Q9DC71, the “log2 fold change” value came out at 0.193.

UniProt Q9DCK3: the “log2 fold change” value worked out at 0.116.

UniProt Q9EPL9: the “log2 fold change” value was 0.0316.

On to UniProt Q9JL19, for which the “log2 fold change” value was -0.0399.

For the target UniProt Q9ERF3, the “log2 fold change” value is 0.405.

With UniProt Q9JIM1, the “log2 fold change” value stood at 0.389.

Take UniProt Q9JJL8: the “log2 fold change” value came to 0.322.

With UniProt Q9QXG2, the “log2 fold change” value worked out at 0.0228.

Take UniProt Q9QYA2: the “log2 fold change” value was -0.00105.

Turning to UniProt Q9JIX8, the “log2 fold change” value was -0.0342.

For the target UniProt Q9ERE7, the “log2 fold change” value was -0.0742.

As to UniProt Q9DCG6, the “log2 fold change” value was -0.0036.

For UniProt Q9QY36, the “log2 fold change” value is 0.274.

With UniProt Q9JIS5, the “log2 fold change” value is 0.0247.

As for UniProt Q9JI58, the “log2 fold change” value is -0.00694.

As to UniProt Q9EPB4, the “log2 fold change” value stood at 0.707.

Regarding UniProt Q9JMD0, the “log2 fold change” value stood at 0.167.

As for UniProt Q9EPC1, the “log2 fold change” value is -0.169.

Take UniProt Q9JM99: the “log2 fold change” value is 0.188.

Consider UniProt Q9QYH6, for which the “log2 fold change” value was found to be 0.0236.

Turning to UniProt Q9EQF5, the “log2 fold change” value is -0.0764.

For the target UniProt Q9ERG2, the “log2 fold change” value amounted to 0.0539.

Regarding UniProt Q9QX47, the “log2 fold change” value stood at 0.0854.

Regarding UniProt Q9JKL4, the “log2 fold change” value was -0.0664.

For the target UniProt Q9JHH6, the “log2 fold change” value is 0.0371.

Turning to UniProt Q9QXA5, the “log2 fold change” value is -0.00344.

Take UniProt Q9JLZ3: the “log2 fold change” value is -0.0777.

For the target UniProt Q9JHL1, the “log2 fold change” value was determined as 0.0317.

Take UniProt Q9DC50: the “log2 fold change” value was -0.0667.

Turning to UniProt Q9QYB5, the “log2 fold change” value is 0.021.

Take UniProt Q9EPT5: the “log2 fold change” value is 0.00447.

For UniProt Q9QXZ0, the “log2 fold change” value was -0.0556.
